Source: the supplement of paper PMC10849652
Some of the results follow.

Sequences of proteins named here, by UniProt entry; tags and fusion partners are left off. A change or cut given only in a name is not applied to a line headed by its entry.
UniProt Q9ULU4: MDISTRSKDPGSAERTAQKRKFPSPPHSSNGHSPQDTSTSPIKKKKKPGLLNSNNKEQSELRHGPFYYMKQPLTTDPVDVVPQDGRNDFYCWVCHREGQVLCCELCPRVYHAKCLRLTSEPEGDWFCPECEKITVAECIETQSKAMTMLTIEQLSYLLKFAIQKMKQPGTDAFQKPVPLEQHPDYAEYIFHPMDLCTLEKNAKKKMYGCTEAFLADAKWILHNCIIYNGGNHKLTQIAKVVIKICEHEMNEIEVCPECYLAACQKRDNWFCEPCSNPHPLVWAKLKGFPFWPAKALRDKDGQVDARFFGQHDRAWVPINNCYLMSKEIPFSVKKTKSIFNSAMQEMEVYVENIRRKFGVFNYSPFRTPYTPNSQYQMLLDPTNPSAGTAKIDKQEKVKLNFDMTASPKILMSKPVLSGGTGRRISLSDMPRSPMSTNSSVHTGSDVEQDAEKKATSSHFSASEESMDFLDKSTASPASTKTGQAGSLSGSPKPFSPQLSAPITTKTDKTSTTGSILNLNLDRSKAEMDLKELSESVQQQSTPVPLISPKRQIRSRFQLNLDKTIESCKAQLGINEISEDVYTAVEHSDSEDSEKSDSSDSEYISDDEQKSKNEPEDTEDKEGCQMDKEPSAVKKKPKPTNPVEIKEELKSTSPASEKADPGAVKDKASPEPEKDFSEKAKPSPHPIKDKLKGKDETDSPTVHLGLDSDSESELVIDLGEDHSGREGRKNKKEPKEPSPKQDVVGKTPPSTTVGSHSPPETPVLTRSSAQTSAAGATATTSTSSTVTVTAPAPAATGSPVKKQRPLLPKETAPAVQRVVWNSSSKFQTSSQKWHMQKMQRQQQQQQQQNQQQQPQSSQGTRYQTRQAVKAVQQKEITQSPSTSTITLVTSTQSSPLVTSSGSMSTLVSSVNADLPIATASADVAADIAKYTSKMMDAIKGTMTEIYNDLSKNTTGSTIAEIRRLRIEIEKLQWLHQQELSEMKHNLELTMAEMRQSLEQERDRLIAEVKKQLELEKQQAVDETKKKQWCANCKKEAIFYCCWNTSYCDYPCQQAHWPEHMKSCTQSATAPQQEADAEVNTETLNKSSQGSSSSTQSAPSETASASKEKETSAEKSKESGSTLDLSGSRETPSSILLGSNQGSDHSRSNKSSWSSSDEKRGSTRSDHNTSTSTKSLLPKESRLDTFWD
UniProt Q8NB15: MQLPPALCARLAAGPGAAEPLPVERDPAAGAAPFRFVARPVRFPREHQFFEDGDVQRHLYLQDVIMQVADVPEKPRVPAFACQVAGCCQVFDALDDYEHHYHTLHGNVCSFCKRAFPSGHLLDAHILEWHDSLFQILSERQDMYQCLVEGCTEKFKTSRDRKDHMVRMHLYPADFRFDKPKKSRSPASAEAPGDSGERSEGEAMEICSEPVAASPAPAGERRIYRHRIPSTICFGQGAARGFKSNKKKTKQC
UniProt Q5VZL5: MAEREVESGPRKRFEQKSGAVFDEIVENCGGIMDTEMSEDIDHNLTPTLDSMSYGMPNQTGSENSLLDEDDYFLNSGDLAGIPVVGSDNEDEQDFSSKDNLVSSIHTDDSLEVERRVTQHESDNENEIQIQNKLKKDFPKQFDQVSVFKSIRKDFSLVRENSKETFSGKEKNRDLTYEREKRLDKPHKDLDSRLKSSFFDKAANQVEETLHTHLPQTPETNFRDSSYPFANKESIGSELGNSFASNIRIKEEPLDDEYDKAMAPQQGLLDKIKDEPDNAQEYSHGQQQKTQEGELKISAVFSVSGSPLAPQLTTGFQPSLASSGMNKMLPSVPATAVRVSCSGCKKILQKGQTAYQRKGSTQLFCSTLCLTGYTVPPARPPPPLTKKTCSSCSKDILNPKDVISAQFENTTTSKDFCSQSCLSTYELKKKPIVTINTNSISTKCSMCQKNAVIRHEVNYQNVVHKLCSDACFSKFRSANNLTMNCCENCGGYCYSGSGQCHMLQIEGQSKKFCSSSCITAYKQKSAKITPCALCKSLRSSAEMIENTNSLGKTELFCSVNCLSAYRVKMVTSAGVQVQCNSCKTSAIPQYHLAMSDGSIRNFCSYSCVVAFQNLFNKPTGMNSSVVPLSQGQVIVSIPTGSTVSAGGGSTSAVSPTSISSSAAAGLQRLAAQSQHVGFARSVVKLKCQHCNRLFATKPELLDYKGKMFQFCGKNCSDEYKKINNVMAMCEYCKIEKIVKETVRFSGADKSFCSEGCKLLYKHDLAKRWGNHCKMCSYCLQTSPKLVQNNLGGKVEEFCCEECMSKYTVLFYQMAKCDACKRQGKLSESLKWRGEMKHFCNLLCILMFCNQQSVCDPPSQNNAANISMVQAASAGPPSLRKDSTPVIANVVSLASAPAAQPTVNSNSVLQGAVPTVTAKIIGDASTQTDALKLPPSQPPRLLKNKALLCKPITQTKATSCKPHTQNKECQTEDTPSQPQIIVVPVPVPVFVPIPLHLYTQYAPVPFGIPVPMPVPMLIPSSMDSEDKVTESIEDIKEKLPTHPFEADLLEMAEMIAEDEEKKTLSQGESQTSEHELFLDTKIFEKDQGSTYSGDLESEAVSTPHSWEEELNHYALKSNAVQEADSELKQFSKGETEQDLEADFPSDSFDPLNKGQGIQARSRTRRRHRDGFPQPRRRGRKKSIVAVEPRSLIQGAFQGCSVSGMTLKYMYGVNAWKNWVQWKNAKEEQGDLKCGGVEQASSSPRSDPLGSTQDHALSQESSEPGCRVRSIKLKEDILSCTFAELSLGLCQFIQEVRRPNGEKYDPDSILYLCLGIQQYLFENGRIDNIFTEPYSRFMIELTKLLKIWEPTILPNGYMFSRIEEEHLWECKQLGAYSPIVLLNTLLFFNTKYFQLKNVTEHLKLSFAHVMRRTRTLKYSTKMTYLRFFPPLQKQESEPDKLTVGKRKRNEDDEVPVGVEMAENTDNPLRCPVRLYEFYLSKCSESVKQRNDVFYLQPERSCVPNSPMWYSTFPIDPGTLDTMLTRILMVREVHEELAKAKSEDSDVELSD
UniProt Q9H582: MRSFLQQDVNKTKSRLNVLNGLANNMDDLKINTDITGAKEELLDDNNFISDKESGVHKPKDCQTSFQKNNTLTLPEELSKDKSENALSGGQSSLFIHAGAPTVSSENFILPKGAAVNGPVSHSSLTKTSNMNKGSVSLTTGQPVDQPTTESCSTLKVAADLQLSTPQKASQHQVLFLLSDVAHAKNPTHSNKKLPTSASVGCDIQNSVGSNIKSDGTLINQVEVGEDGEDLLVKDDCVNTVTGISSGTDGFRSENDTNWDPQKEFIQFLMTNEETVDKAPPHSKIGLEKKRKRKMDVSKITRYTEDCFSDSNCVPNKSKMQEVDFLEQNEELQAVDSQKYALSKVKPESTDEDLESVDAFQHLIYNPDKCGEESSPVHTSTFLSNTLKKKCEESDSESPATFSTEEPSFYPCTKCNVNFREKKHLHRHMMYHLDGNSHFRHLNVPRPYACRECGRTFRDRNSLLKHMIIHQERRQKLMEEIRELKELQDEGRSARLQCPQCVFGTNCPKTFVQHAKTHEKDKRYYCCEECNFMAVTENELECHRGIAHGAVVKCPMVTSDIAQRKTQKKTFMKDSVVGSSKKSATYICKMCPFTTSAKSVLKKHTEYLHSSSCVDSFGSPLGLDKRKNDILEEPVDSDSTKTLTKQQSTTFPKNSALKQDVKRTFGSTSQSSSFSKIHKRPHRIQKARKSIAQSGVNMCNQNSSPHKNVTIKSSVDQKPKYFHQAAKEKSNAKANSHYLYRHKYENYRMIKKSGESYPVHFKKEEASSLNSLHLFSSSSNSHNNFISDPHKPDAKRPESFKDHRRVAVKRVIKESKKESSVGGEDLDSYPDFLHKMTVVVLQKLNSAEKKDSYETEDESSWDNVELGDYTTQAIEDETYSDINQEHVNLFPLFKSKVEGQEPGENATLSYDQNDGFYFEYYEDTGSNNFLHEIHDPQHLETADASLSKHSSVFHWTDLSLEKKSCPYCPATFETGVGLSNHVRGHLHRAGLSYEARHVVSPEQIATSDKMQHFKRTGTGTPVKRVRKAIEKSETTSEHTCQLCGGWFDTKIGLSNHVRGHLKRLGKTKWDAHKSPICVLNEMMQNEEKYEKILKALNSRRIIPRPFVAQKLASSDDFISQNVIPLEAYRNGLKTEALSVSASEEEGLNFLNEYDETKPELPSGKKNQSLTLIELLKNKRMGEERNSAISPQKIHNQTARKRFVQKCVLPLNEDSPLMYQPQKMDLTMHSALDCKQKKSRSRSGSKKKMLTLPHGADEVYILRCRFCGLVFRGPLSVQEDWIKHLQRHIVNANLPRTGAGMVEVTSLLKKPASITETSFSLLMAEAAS
UniProt Q9C0D3: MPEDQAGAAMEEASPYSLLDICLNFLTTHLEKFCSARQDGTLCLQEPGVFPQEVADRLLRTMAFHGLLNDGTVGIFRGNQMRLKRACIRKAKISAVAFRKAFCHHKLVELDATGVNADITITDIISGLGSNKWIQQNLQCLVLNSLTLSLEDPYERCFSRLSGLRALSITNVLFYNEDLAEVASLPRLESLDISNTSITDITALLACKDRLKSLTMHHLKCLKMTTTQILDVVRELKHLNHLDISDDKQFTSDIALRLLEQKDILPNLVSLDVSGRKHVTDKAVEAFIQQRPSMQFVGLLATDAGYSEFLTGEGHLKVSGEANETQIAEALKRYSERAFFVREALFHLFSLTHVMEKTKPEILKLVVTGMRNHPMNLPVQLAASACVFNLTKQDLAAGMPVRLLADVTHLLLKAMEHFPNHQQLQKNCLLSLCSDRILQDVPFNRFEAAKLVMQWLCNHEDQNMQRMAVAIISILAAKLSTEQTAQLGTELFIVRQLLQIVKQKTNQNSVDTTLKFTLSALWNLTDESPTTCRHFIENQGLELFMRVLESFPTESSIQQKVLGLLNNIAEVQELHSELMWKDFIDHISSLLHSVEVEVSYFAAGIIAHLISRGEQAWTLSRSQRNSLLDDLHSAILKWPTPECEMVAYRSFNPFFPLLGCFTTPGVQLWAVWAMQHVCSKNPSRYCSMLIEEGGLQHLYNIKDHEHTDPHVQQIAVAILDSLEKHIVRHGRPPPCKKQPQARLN
UniProt Q96IR2: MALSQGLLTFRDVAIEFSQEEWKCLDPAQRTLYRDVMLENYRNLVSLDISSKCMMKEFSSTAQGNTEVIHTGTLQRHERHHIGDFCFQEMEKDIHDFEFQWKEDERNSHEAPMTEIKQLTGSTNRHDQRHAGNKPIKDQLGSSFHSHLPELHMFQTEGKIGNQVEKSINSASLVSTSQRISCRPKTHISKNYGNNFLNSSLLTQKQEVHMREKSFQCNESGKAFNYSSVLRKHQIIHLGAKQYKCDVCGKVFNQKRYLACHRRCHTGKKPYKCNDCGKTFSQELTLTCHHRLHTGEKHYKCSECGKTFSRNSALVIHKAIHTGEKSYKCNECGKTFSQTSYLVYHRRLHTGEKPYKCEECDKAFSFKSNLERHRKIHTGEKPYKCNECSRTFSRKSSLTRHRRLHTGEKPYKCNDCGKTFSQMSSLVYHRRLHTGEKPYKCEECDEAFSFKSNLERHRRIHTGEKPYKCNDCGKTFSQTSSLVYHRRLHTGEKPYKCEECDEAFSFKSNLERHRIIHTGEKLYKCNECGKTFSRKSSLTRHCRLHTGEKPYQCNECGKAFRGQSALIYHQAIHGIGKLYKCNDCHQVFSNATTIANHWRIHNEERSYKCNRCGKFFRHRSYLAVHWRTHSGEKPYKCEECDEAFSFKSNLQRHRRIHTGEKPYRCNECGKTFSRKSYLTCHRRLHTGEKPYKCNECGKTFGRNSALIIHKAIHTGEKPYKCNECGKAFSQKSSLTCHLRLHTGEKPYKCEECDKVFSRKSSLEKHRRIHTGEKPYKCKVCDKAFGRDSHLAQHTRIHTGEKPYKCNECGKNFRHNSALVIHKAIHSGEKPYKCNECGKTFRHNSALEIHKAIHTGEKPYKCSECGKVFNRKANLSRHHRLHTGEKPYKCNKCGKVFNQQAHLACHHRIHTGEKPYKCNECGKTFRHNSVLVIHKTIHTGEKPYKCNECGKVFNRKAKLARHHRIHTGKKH
UniProt P17029: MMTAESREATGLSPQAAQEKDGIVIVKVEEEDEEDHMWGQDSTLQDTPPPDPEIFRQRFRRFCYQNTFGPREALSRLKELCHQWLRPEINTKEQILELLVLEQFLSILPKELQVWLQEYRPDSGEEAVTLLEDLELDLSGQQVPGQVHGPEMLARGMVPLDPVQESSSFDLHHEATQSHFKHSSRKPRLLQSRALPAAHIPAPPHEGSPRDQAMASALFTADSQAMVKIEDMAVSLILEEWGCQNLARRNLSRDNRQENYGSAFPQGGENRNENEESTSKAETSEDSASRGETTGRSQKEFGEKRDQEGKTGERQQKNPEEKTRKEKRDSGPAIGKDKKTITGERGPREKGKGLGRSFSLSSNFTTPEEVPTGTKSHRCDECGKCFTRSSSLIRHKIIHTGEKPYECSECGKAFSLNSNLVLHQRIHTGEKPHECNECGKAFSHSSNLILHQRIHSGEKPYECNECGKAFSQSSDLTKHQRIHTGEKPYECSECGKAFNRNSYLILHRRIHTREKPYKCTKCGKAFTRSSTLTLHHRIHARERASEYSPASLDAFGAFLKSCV

Experiments:
Assay in all cases: log2 fold change, soluble protein after heating vs DMSO (PISA); higher = thermal stabilisation; K562 lysate, 10 uM; active = over 0.2 and 3.5 SD of the protein, either way, in both replicates (recomputed)
erlotinib = compound: C#Cc1cccc(Nc2ncnc3cc(OCCOC)c(OCCOC)cc23)c1 [erlotinib]
How it was run: (§1)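 Soluble protein was defined as the supernatant remaining after 21,000xg for 90 min, following pooling of heated aliquots and adjustment to 0.5% NP-40 at 4°C. Before that, crude K562 extract at 1 mg/mL protein in PBS pH 7.4 with 1 mM MgCl2 was treated with 10 μM compound for 30 min and heated for 3 min across 48°C-58°C. Quantification used TMTpro 16plex LC-MS/MS with channel sums equalised, and values are log-two fold changes in thermal stability relative to solvent controls from duplicates.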

[1] = compound: C/C(=N\NC(=O)C1=CC(=CC=C1)S(=O)(=O)N2CCOCC2)/C3=C(C=CC(=C3)Cl)O
How it was run: as §1

[2] = compound: C1=CC(=CC=C1C2=NC3=C(N2)C=C(C=C3)C(=O)N)OC4=CC=C(C=C4)Cl
How it was run: as §1

[3] = compound: C1=CC2=C(C=CC(=C2)/C=C\3/C(=O)NC(=NCC4=CC=CS4)S3)N=C1
How it was run: as §1

[4] = compound: C1=CC2=NC=CN=C2C=C1/C=C/3\C(=O)NC(=O)S3
How it was run: as §1

[5] = compound: C1=CC=C(C=C1)C2=NC(=C(N2)C3=CC=NC=C3)C4=CC(=C(C=C4)Cl)O
How it was run: as §1

[6] = compound: C1=CC=C2C(=C1)C3=NNC4=CC=CC(=C43)C2=O
How it was run: as §1

[7] = compound: C1CCN(C1)C(=O)NC2=CC=CC(=C2)NC3=NC=C(C(=N3)NCCC4=CN=CN4)Br
How it was run: as §1

[8] = compound: C1CN(CCC1(CC2=CC=C(C=C2)Cl)N)C3=NC=NC4=C3C=CN4
How it was run: as §1

IRAK-1-4 Inhibitor I = compound: C1COCCN1CCN2C3=CC=CC=C3N=C2NC(=O)C4=CC(=CC=C4)[N+](=O)[O-] [IRAK-1-4 Inhibitor I]
How it was run: as §1

Measured: log2 fold change

ZW10 (UniProt O43264)
inactive: erlotinib 0.046 | [1] -0.013 | [2] 0.003 | [3] 0.026 | [4] -0.005 | [5] 0.001 | [6] -0.037 | [7] -0.044 | [8] 0.017 | IRAK-1-4 Inhibitor I 0.027

ZMYND8 isoform 19 (UniProt Q9ULU4)
inactive: erlotinib -0.012 | [1] -0.058 | [2] 0.023 | [3] 0.011 | [4] -0.037 | [5] 0.024 | [6] -0.077 | [7] -0.021 | [8] 0.018 | IRAK-1-4 Inhibitor I -0.025

ZNF511 (UniProt Q8NB15)
inactive: erlotinib 0.029 | [1] 0.069 | [2] 0.071 | [3] -0.39 | [4] -0.029 | [5] -0.006 | [6] 0.091 | [7] 0.099 | [8] 0.132 | IRAK-1-4 Inhibitor I 0.07

ZNF277 (UniProt Q9NRM2)
inactive: erlotinib 0.011 | [1] 0.016 | [2] -0.044 | [3] -0.06 | [4] -0.003 | [5] 0.006 | [6] 0.003 | [7] -0.024 | [8] -0.021 | IRAK-1-4 Inhibitor I 0.01

ZNF598 isoform 3 (UniProt Q86UK7)
inactive: erlotinib -0.001 | [1] -0.003 | [2] 0.007 | [3] -0.007 | [4] -0.045 | [5] 0.006 | [6] -0.064 | [7] -0.036 | [8] -0.002 | IRAK-1-4 Inhibitor I 0.029

ZNF830 (UniProt Q96NB3)
inactive: erlotinib -0.028 | [1] 0.03 | [2] 0.024 | [3] 0 | [4] -0.036 | [5] 0.029 | [6] 0.014 | [7] -0.017 | [8] 0.021 | IRAK-1-4 Inhibitor I 0.009

ZMYM4 (UniProt Q5VZL5)
inactive: erlotinib -0.023 | [1] -0.068 | [2] 0.027 | [3] 0.073 | [4] -0.099 | [5] 0.042 | [6] -0.088 | [7] -0.09 | [8] 0.015 | IRAK-1-4 Inhibitor I 0.005

ZNF644 (UniProt Q9H582)
inactive: erlotinib 0.192 | [1] -0.085 | [2] 0.071 | [3] 0.075 | [4] 0.066 | [5] -0.115 | [6] -0.04 | [7] 0.036 | [8] -0.037 | IRAK-1-4 Inhibitor I 0.035

ZNF579 (UniProt Q8NAF0)
inactive: erlotinib -0.031 | [1] 0.288 | [2] -0.017 | [3] -0.189 | [4] -0.081 | [5] -0.004 | [6] 0.106 | [7] -0.021 | [8] -0.029 | IRAK-1-4 Inhibitor I 0.017

ZMYM3 (UniProt Q14202)
inactive: erlotinib 0.031 | [1] -0.011 | [2] -0.051 | [3] -0.038 | [4] -0.001 | [5] -0.003 | [6] -0.015 | [7] -0.026 | [8] 0 | IRAK-1-4 Inhibitor I -0.001

ZNF629 (UniProt Q9UEG4)
inactive: erlotinib -0.032 | [1] 0.004 | [2] 0.145 | [3] -0.028 | [4] -0.085 | [5] -0.035 | [6] 0.006 | [7] -0.03 | [8] 0.002 | IRAK-1-4 Inhibitor I 0.015

ZYX (UniProt Q15942)
inactive: erlotinib -0.013 | [1] -0.04 | [2] 0.02 | [3] 0 | [4] 0.008 | [5] 0.042 | [6] 0 | [7] 0.02 | [8] 0.035 | IRAK-1-4 Inhibitor I 0.033

ZNF8 (UniProt P17098)
inactive: erlotinib -0.045 | [1] -0.296 | [2] -0.024 | [3] -0.107 | [4] 0.113 | [5] -0.108 | [6] 0.113 | IRAK-1-4 Inhibitor I 0.044

ZNF507 (UniProt Q8TCN5)
inactive: erlotinib -0.088 | [1] -0.126 | [2] 0.008 | [3] 0.035 | [4] -0.052 | [5] 0.006 | [6] -0.036 | [7] 0.012 | [8] -0.039 | IRAK-1-4 Inhibitor I 0.028

ZMIZ1 (UniProt Q9ULJ6)
inactive: erlotinib -0.014 | [1] 0.052 | [2] 0.075 | [3] -0.042 | [4] -0.006 | [5] 0.008 | [6] -0.032 | [7] 0 | [8] -0.021 | IRAK-1-4 Inhibitor I -0.003

ZNF239 (UniProt Q16600)
inactive: erlotinib 0.051 | [1] -0.157 | [2] 0.007 | [3] -0.16 | [4] -0.054 | [5] -0.071 | [6] 0.032 | [7] 0.098 | [8] 0.163 | IRAK-1-4 Inhibitor I 0.051

ZNF787 (UniProt Q6DD87)
inactive: erlotinib -0.041 | [1] 0.074 | [2] 0.003 | [3] -0.032 | [4] -0.044 | [5] -0.026 | [6] -0.31 | [7] -0.018 | [8] -0.04 | IRAK-1-4 Inhibitor I 0.03

ZNF618 (UniProt Q5T7W0)
inactive: erlotinib 0.062 | [1] 0.059 | [2] 0.002 | [3] 0.004 | [4] -0.02 | [5] 0.025 | [6] 0.029 | [7] 0.001 | [8] 0.016 | IRAK-1-4 Inhibitor I -0.01

ZNF428 (UniProt M0QXZ5)
inactive: erlotinib 0.006 | [1] -0.041 | [2] 0.035 | [3] 0 | [4] -0.008 | [5] 0.039 | [6] -0.065 | [7] -0.05 | [8] -0.007 | IRAK-1-4 Inhibitor I -0.027

ZNRD2 (UniProt O60232)
inactive: erlotinib 0.089 | [1] -0.009 | [2] 0.02 | [3] 0.068 | [4] -0.02 | [5] 0.037 | [6] 0.072 | [7] -0.025 | [8] 0.057 | IRAK-1-4 Inhibitor I 0

ZYG11B (UniProt Q9C0D3)
inactive: erlotinib 0.046 | [1] -0.022 | [2] 0.064 | [3] 0.006 | [4] -0.023 | [5] -0.016 | [6] -0.04 | [7] -0.014 | [8] 0.042 | IRAK-1-4 Inhibitor I 0.014

ZNF318 (UniProt Q5VUA4)
inactive: erlotinib 0.026 | [1] -0.033 | [2] -0.054 | [3] -0.015 | [4] -0.078 | [5] 0.003 | [6] 0.004 | [7] 0.023 | [8] 0.004 | IRAK-1-4 Inhibitor I 0.012

ZNF407 (UniProt Q9C0G0)
inactive: erlotinib 0.127 | [1] 0.121 | [2] 0.048 | [3] -0.031 | [4] -0.079 | [5] -0.143 | [6] -0.055 | [7] 0.01 | [8] -0.02 | IRAK-1-4 Inhibitor I -0.048

ZNF845 (UniProt Q96IR2)
inactive: erlotinib -0.033 | [1] -0.145 | [2] 0.102 | [3] 0.02 | [4] -0.09 | [5] 0.047 | [6] -0.123 | IRAK-1-4 Inhibitor I -0.044

ZMAT2 (UniProt Q96NC0)
inactive: erlotinib 0.025 | [1] -0.037 | [2] 0.025 | [3] -0.023 | [4] -0.026 | [5] 0.023 | [6] 0.055 | [7] -0.007 | [8] -0.048 | IRAK-1-4 Inhibitor I 0.066

ZKSCAN1 (UniProt P17029)
inactive: erlotinib -0.036 | [1] -0.113 | [2] -0.029 | [3] 0.028 | [4] -0.048 | [5] 0.097 | [6] -0.014 | [7] 0.07 | [8] -0.044 | IRAK-1-4 Inhibitor I 0.052

ZNF92 (UniProt Q03936)
inactive: erlotinib -0.076 | [1] -0.014 | [2] -0.041 | [3] -0.029 | [4] -0.005 | [5] 0.218 | [6] 0.091 | IRAK-1-4 Inhibitor I -0.051

ZHX1 (UniProt Q9UKY1)
inactive: erlotinib 0.02 | [1] -0.094 | [2] 0.082 | [3] 0.051 | [4] -0.027 | [5] -0.027 | [6] -0.077 | [7] -0.119 | [8] 0.026 | IRAK-1-4 Inhibitor I -0.055

ZNF609 (UniProt O15014)
inactive: erlotinib -0.035 | [1] -0.013 | [2] 0.028 | [3] -0.029 | [4] -0.053 | [5] -0.023 | [6] -0.109 | [7] -0.008 | [8] 0.026 | IRAK-1-4 Inhibitor I -0.005

ZNF217 (UniProt O75362)
inactive: erlotinib -0.014 | [1] -0.043 | [2] 0.06 | [3] -0.132 | [4] -0.004 | [5] 0.027 | [6] -0.162 | [7] -0.014 | [8] 0.028 | IRAK-1-4 Inhibitor I 0.007
